Reference: PMC10850815
Results are given in words; binding and its absence hold for the method and conditions named. In cells and extracts the contact can be indirect. Some binding calls cover weakened binding; strength is not graded here.

By UniProt entry, the sequences of proteins in these tests, tags left out. Residues count along the entry.
UniProt Q9NZQ7, residues 19-290: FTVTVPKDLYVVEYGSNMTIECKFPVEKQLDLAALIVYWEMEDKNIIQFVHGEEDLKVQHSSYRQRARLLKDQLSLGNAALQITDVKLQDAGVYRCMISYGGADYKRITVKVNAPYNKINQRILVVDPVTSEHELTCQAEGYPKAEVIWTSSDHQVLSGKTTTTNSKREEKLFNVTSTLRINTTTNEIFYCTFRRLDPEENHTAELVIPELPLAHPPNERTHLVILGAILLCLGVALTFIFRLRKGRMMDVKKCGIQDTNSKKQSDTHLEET
UniProt P08670: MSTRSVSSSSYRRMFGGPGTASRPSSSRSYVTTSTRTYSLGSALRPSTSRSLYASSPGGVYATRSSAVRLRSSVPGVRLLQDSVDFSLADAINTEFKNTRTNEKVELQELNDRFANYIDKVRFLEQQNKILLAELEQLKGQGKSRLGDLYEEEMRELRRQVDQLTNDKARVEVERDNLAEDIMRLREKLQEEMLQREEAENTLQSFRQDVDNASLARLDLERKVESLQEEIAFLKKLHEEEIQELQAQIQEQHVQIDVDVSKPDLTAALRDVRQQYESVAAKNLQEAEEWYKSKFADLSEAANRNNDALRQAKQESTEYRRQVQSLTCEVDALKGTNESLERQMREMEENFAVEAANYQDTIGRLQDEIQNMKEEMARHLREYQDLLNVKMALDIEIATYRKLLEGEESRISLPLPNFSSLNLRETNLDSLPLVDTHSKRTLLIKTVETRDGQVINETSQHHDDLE

Molecular target: programmed cell death 1 ligand 1 (PD‐L1) (human (endogenous in PCI 52 and FaDu)) (UniProt Q9NZQ7)
Experiment: proximity ligation; Duolink PLA in PCI 52 cells fixed with 4% PFA and permeabilized with 0.1% Triton X‐100; anti‐PD‐L1 (rabbit, E1L3N) and anti‐vimentin (mouse, ab8978); cells synchronized in G1, S or G2/M phase with cell cycle inhibitors; IgG isotype controls

Question: For vimentin (from UniProt P08670 1-466), which binding is on record?
Answer: binds
